For at least one entry, the source does not settle the construct or the ends of the probe. At least one verdict rests on a figure or table, not on a statement of the authors.
What was measured:
[1] = tested on: TFIIICΔtail (τ138, τ131, τ95Δtail, τ91, τ60, τ55) (Saccharomyces cerevisiae); experiment: cryo-EM; conditions: datasets 2-5, some τA redistribution to pseudo-A-box; Buffer FB: 20 mM HEPES pH 7.5, 150 mM KCl, 2 mM MgCl2, 5 mM DTT; filter binding 1 h at 4 C; footprint 30 min RT; recombinant protein
[2] = tested on: TFIIICΔtail (τ138, τ131, τ95Δtail, τ91, τ60, τ55) (Saccharomyces cerevisiae); experiment: EMSA; conditions: 100-900 nM protein, poly-dI/dC; Buffer FB: 20 mM HEPES pH 7.5, 150 mM KCl, 2 mM MgCl2, 5 mM DTT; filter binding 1 h at 4 C; EMSA 20 min RT with 1 ug poly-dI/dC, gel at 4 C; footprint 30 min RT; recombinant protein; label: 32P

Row | Sequence | binding result [1] | binding result [2]
1 | GTATTACTCGAGCCCGTATATAAACAGTTCTCCATTGAAAAGTCGCCATCTTAGTATAGTGGTTAGTACACATCGTTGTGGCCGATGAAACCCTGGTTCGATTCTAGGAGATGGCATTTT (double strand) [120-bp tRNAHis with TATA-like sequence] | binds | –
2 | TCCATTGAAAAGTCGCCATCTTAGTATAGTGGTTAGTACACATCGTTGTGGCCGATGAAACCCTGGTTCGATTCTAGGAGATGGCATTTT (double strand) [A/B (EMSA)] | – | binds
